system: α4β2 nAChRs expressed in Xenopus laevis oocytes; experiment: 125I-labeled epibatidine binding assay for membrane expression of nAChR in oocytes; set-up: species or system Rattus norvegicus; conditions: 50 pM 125I-labeled epibatidine, 2 h

Substance | receptor expression compared with WT
α4S438Aβ2: rat α4β2 nAChR, α4 subunit point mutation S438A, CKII putative phosphorylation site | did not exhibit changes in expression
α4S438Dβ2: rat α4β2 nAChR, α4 subunit point mutation S438D, CKII putative phosphorylation site | significant decreases in receptor expression
α4S469Aβ2: rat α4β2 nAChR, α4 subunit point mutation S469A, CKII putative phosphorylation site | significant decreases in receptor expression
α4S469Dβ2: rat α4β2 nAChR, α4 subunit point mutation S469D, CKII putative phosphorylation site | no change in receptor expression
